Assay results as given in PubChem BioAssay AID624291 (National Center for Advancing Translational Sciences (NCATS), 2012).
Among all 350,000 compounds or so, about 220 (0.063%) were called active. Inconclusive means that the source gave no clear call. Such entries were picked first, then a sample of the others. Calls come from the whole dose curve; as a rule, active = well fitted activation curve with a large enough effect; inconclusive = small, poorly fitted or top-dose-only effect; inactive = no such curve, though single readings can be large or run the other way. A potency beside an inconclusive call is a rough fit, not a confirmed value.

Assay: qHTS for Activators of Integrin-Mediated Alleviation for Muscular Dystrophy; note: nearly all actives have a fitted effect of over 60% in size;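 for activation: 100% = response of the positive control SU9516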
Details: alpha7betagal myoblasts, beta-gal FDG fluorescence, 48 h; activation: at 38.3 µM (top of the series)
Summary of the method: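 alpha7betagal+/- myoblasts (passage 13, 250/well) treated 48 h at 37C with compounds at 1:260 dilution of DMSO stock. Lysed, then beta-galactosidase activity read as FDG fluorescence (ex 480/em 540) after 30 min, with pre-read for autofluorescence.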
Potency is the fitted concentration of half-maximal effect.

Row | Structure (SMILES) | activation | Potency
1 | CC1Nc2ncnc(N3CCN(c4ccccc4)CC3)c2N(Cc2ccc(Br)cc2)C1=O (centres undefined) | inactive: -55.3% | –
2 | CCCc1cc(C(=O)Nc2ccc(C(=O)c3ccc(C)cc3)cc2)n(C)n1 | inactive: 23.6% | –
3 | CC(C)C[C@H](NC(=O)c1ccc(OC2CCN(C(=O)C3CC3)CC2)cc1)C(N)=O | – | inconclusive: 2.82 µM [activator, single point]
4 | COc1ccc(NC(=O)NNC(=O)COc2ccc3cc(Br)ccc3c2)cc1OC | – | inconclusive: 1.41 µM [activator, partial curve, poor fit]
5 | Cc1cc(C)n(CC2CC(=O)N(c3ccc(Cl)cc3)C2=O)n1 (centres undefined) | inconclusive: -57.7% [activator] | –
6 | COc1cccc(NC(=O)N(CCCN2CCOCC2)C(C)c2cc3ccccc3o2)c1 (centres undefined) | inactive: 0.242% | –
7 | Clc1ccccc1-c1nc2ccccc2c2nc3ccccc3n12 | inactive: -11.8% | –
8 | COc1ccc(N/N=C(/N=Nc2nc(C)cc(=O)[nH]2)c2ccccc2)cc1 | inactive: -35.3% | –
9 | COc1cccc(C2c3[nH]c4ccccc4c3C[C@H]3C(=O)N(CCCCCO)CC(=O)N23)c1 (some centres undefined) | – | inconclusive: 5.01 µM [activator, single point]
10 | Nc1nonc1-n1nnc(C(=O)N/N=C/c2ccc(F)cc2)c1-c1ccc2c(c1)OCO2 | – | inconclusive: 28.2 µM [activator, single point]
11 | CN(C)/C(=N\O)c1c(Cl)cccc1Cl | – | inconclusive: 0.708 µM [activator, partial curve, poor fit]
12 | Oc1c(Br)cc(Br)cc1C=NCc1ccc(F)cc1 | – | inconclusive: 5.01 µM [activator, single point]
13 | CCN(CC)S(=O)(=O)c1ccc(N2CCCC2)c(NC(=O)Cc2cc(OC)c(OC)c(OC)c2)c1 | – | inconclusive: 3.55 µM [activator, partial curve, poor fit]
14 | CC1=NN(Cc2ccccc2)C(=O)C1C(c1ccc(Cl)cc1)C(C#N)C#N (centres undefined) | inactive: -5.48% | –
15 | O=C(c1ccco1)N1CCN(C/C=C/c2ccccc2)CC1 | inactive: -4.04% | –
16 | O=C1COc2ccc(S(=O)(=O)NCc3ccccc3)cc2N1 | – | inconclusive: 2.51 µM [activator, partial curve, poor fit]
17 | CCCS(=O)(=O)c1nc(S(=O)(=O)c2ccc(C)cc2)c(NCCN2CCOCC2)s1 | – | inconclusive: 5.01 µM [activator, single point]
18 | Cc1ccc(S(=O)(=O)Nn2c(O)c(C=C3N=c4ccccc4=N3)sc2=S)cc1 | – | inconclusive: 3.16 µM [activator, single point]
19 | Cc1cccc(NC(=O)CCN2CCC(C(N)=O)CC2)c1 | – | inconclusive: 28.2 µM [activator, single point]

Pulled by structure from above (2):
Row | Structure (SMILES) | activation | Potency
17 | CCCS(=O)(=O)c1nc(S(=O)(=O)c2ccc(C)cc2)c(NCCN2CCOCC2)s1 | – | inconclusive: 5.01 µM [activator, single point]
6 | COc1cccc(NC(=O)N(CCCN2CCOCC2)C(C)c2cc3ccccc3o2)c1 (centres undefined) | inactive: 0.242% | –
